According to PubChem BioAssay AID488837 (National Center for Advancing Translational Sciences (NCATS), 2010):
Screen size: about 330,000 compounds; about 20 (0.006%) were called active. This list was built around the results that the source calls inconclusive (neither active nor inactive); the mix of calls is not that of the screen. Calls follow the shape of the dose curve; as a rule, active = well fitted inhibition curve with a large enough effect; inconclusive = small, poorly fitted or top-dose-only effect, or effect the other way; inactive = flat fitted curve, though single readings scatter. Potencies of inconclusive entries are doubtful fits and often do not repeat.

Protein sequences, listed by entry. Tags and fused reporters are not part of them. Lines headed by an entry give the natural chain unless they say otherwise; changes in a name come on top.
UniProt O00167: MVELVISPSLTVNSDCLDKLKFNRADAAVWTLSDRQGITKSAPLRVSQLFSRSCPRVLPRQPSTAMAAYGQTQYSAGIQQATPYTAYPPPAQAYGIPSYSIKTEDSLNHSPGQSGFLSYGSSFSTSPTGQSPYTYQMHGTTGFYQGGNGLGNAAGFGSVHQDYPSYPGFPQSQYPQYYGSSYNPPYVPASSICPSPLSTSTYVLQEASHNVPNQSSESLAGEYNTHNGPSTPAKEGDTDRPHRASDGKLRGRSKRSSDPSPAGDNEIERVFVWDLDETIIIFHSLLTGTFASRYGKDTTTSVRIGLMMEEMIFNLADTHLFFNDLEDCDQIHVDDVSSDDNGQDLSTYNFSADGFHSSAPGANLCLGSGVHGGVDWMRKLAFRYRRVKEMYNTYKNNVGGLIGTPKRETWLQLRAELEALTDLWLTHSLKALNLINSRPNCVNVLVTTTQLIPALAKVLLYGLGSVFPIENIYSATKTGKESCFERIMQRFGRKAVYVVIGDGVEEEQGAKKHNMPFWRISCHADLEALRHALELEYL

The molecules below were run against Protein phosphatase EYA2 (Homo sapiens) (UniProt O00167) (assay: qHTS Assay for Inhibitors of the Phosphatase Activity of Eya2). Settings: recombinant Eya2, OMFP fluorescence dephosphorylation (OMFP is methylfluorescein phosphate); activity, negative = inhibition: at 76.9 µM (top of the series) unless noted.
Summary of the method: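 Eya2 (0.2 uM) preincubated 10 min at ambient with compound, then OMFP substrate added at 50 uM; 10 min reaction in 50 mM HEPES pH 7.5, 50 mM NaCl, 5 uM MgCl2, 0.05% BSA, 1 mM DTT. Fluorescence read at Ex 485/Em 525 nm.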
% is scaled to controls: 0 for no effect and ±100 for the full control effect; potency is read from the fitted curve at half-maximal effect.

SMILES | Potency | activity, negative = inhibition
CCOc1cc(NC(=S)Nc2cccc(OC)c2)c(OCC)cc1NC(=O)C1CC1 | inconclusive: 22.4 µM [inhibitor, single point] | 
COc1ccc(Cl)cc1NC(=O)CCS(=O)(=O)c1cc2c(cc1C)NC(=O)CO2 | inconclusive: 22.4 µM [inhibitor, single point] | 
CCCC(=O)Nc1nc(C)c(-c2csc(Nc3ccccc3C)n2)s1 | inconclusive: 126 µM [inhibitor, single point] | 
COc1ccccc1N(CC(=O)NCCSCc1ccccc1)S(=O)(=O)c1ccc(C)cc1 | inconclusive: 17.8 µM [inhibitor, single point] | 
COc1ccc(CCNC(=O)COC(=O)/C=C/c2cccs2)cc1OC | inconclusive: 22.4 µM [inhibitor, single point] | 
CCCc1c(C(=O)Nc2ccc(C(F)(F)F)cc2)cnn1-c1ccccc1 | inconclusive: 89.1 µM [inhibitor, partial curve] | 
Cc1cccc(OCC(=O)NCCCNC(=O)c2cnccn2)c1 | inconclusive: 22.4 µM [inhibitor, single point] | 
O=C1/C(=C/c2cccs2)N=C(c2cccs2)N1Nc1ccccc1 | inconclusive: 20 µM [inhibitor, partial curve, poor fit] | 
COc1ccc(-c2cc(=O)n(-c3ccc([N+](=O)[O-])cc3)[nH]2)cc1 |  | inactive: -3.82%
COc1ccc(CNC(=O)COC(=O)c2nc3nc(C)cc(C)n3n2)cc1 | inconclusive: 14.1 µM [inhibitor, single point] | 
CC(C)CNC(=O)c1c2c(nc3ccccc13)-c1ccccc1CC2 | inconclusive: 126 µM [inhibitor, partial curve] | 
COc1ccc(NC(=S)Nc2ccc3nsnc3c2)cc1 |  | inactive: 3.4%
O=C(Nc1ccccc1O)c1ccc(C(=O)c2ccccc2)o1 | inconclusive: 22.4 µM [inhibitor, single point] | 
CC(=O)c1ccc(N2CCN(C(=O)CCCn3c(=O)[nH]c4ccc(Br)cc4c3=O)CC2)cc1 | inconclusive: 89.1 µM [inhibitor, partial curve] | 
N#C/C(=C/c1ccc(Br)o1)C(N)=S | inconclusive: 89.1 µM [inhibitor, single point] | 
CC(C)C(=O)Nc1cccc(NC(=S)NC(=O)c2ccccc2Cl)c1 | inconclusive: 398 µM [inhibitor, partial curve, poor fit] | 
Cc1ccc(-c2nn(-c3ccccc3)cc2C2SCC(=O)N2Cc2ccccc2)o1 (stereo not drawn) |  | inactive: -34.1%
CN1C(=O)/C(=C2/C=Cc3ccccc3N2CCCS(=O)(=O)O)SC1=S | inconclusive: 63.1 µM [inhibitor, single point] | 
COC(CN(C)S(=O)(=O)c1cc2c3c(c1)CCN3C(=O)CC2)OC |  | inactive: 5.24%
O=C(c1cccc(Cl)c1)C1CCCN(S(=O)(=O)c2ccccc2)C1 (stereo not drawn) | inconclusive: 89.1 µM [inhibitor, single point] | 
CN(C)Cc1cc2ccccc2c2c1COC2 | inconclusive: 100 µM [inhibitor, single point] | 
CCn1c(=O)c2cc(C(=O)NCCC(C)C)sc2c2ccccc21 | inconclusive: 1260 µM [inhibitor, single point] | 
CCN1C(=S)SC(=O)C1=C1C=C(C)N(Cc2ccco2)C(C)=C1 | inconclusive: 79.4 µM [activator, partial curve, poor fit] | 

For reference, some entries already given:
SMILES | Potency | activity, negative = inhibition
CCCc1c(C(=O)Nc2ccc(C(F)(F)F)cc2)cnn1-c1ccccc1 | inconclusive: 89.1 µM [inhibitor, partial curve] | 
Cc1cccc(OCC(=O)NCCCNC(=O)c2cnccn2)c1 | inconclusive: 22.4 µM [inhibitor, single point] | 

Next compounds follow:

SMILES | Potency | activity, negative = inhibition
O=C(CC1C(=O)NCCN1Cc1cccc(Oc2ccccc2)c1)NCCc1ccccn1 (stereo not drawn) |  | inactive: -0.85%
COc1ccc2c(CC(=O)N[C@@H](Cc3c[nH]c4ccccc34)C(=O)O)cc(=O)oc2c1 | inconclusive: 126 µM [inhibitor, partial curve, poor fit] | 
OCCCc1cn(Cc2ccccc2)c2ccccc12 |  | inactive: 6.1%
O=C(NCCc1cccc(Cl)c1)c1cc2ccccc2oc1=O | inconclusive: 112 µM [inhibitor, single point] | 
C[C@H]1O[C@@H](n2cc(F)c(=O)[nH]c2=O)[C@H](O)[C@H]1O |  | inactive: -0.953%
CCOC(=O)c1ccc(S(=O)(=O)Nc2ccc(N3CCOCC3)cc2)cc1 | inconclusive: 22.4 µM [inhibitor, single point] | 
Cc1nc2c(O)cccc2cc1CO |  | inactive: 13.1%
COCCCNC(=S)N/N=C/c1ccc(O)cc1O |  | inactive: -2.99%
CCOc1cc(/C=C(\C#N)c2nc(-c3cccs3)c(NC(C)=O)s2)ccc1O | inconclusive: 39.8 µM [activator, partial curve] | 
CCCN1C(=O)/C(=C/c2ccc(N3CCCC3)c(C)c2)NC1=S | inconclusive: 15.8 µM [activator, partial curve] | 
CCc1ccc(-n2c(SCC(=O)c3ccc4c(c3)NC(=O)CO4)nc3ccccc3c2=O)cc1 |  | inactive: 7.48%
Cn1c(SCC(=O)N2CCOCC2)nnc1-c1cnccn1 | inconclusive: 17.8 µM [inhibitor, single point] | 
COc1ccc(C2C3=C(CCCC3=O)Nc3n[nH]c(C)c32)cc1OC (stereo not drawn) | inconclusive: 178 µM [inhibitor, partial curve] | 
Cc1cc(OCC(=O)NCC(O)c2ccccc2)c2c(C)cc(=O)oc2c1 (stereo not drawn) | inconclusive: 70.8 µM [inhibitor, single point] | 
CC(NC(=O)c1ccc(NS(C)(=O)=O)cc1)c1ccccc1 (stereo not drawn) |  | inactive: -2.93%
CCOC(=O)C1CN(S(=O)(=O)c2ccc(OC)cc2)c2cc(Cl)ccc2O1 (stereo not drawn) | inconclusive: 100 µM [inhibitor, single point] | 
COc1ccc(C(CNC(=O)C(CCSC)NC(=O)c2ccccc2OC)N2CCCCC2)cc1 (stereo not drawn) | inconclusive: 100 µM [inhibitor, single point] | 
COc1ccc(C)cc1NC(=O)C1CCN(C(=O)c2ccc(C(C)(C)C)cc2)CC1 | inconclusive: 141 µM [inhibitor, single point] | 
CC(=O)c1c(O)c2cccc3c2n(c1=O)CCC3 | inconclusive: 89.1 µM [inhibitor, single point] | 
CC(C)COc1cccc(C(=O)NC(=S)NCc2cccnc2)c1 |  | inactive: -2.56%
CC(=O)c1cccc(NC(=O)C(OC(=O)/C=C/c2ccc3c(c2)OCO3)c2ccccc2)c1 (stereo not drawn) | inconclusive: 89.1 µM [inhibitor, single point] | 
CNc1c(NS(=O)(=O)c2ccc(CC(C)C)cc2)c(=O)oc2ccccc12 | inconclusive: 25100 µM [inhibitor, partial curve, poor fit] | 

SMILES | Potency | activity, negative = inhibition
O=C(CC1(CC(=O)N2CCOCC2)CCCC1)Nc1ccccc1 | inconclusive: 20 µM [inhibitor, partial curve] | 
CN(C)/C=C/C(=O)c1ccc(Br)s1 |  | inactive: 4.41%
CCOC(=O)N/N=C1\CC(C)S(=O)(=O)c2ccc(Cl)cc21 (stereo not drawn) | inconclusive: 79.4 µM [inhibitor, single point] | 
COc1ccc(CNc2ncc(-c3ccc(Cl)cc3)n2C)c(OC)c1OC | inconclusive: 22.4 µM [inhibitor, single point] | 
O=C(OCc1nnc(-c2ccccc2)o1)c1cc2ccccc2cc1O | inconclusive: 126 µM [inhibitor, single point] | 
COc1ccccc1NC(=O)Cn1cnc2c(nnn2-c2ccc(C)cc2)c1=O | inconclusive: 447 µM [inhibitor, partial curve, poor fit] | 
O=C1NC(=O)C(Cc2ccccc2)(c2cccnc2)N1 (stereo not drawn) | inconclusive: 100 µM [inhibitor, single point] | 
Nc1ccc(OC(=O)Nc2ccc(O)cc2)cc1 | inconclusive: 100 µM [inhibitor, single point] | 
Cc1cc(=O)oc2cc(OCC(O)CN3CCc4ccccc4C3)ccc12 (stereo not drawn) |  | inactive: -6.59%
CC(C)c1nc2c(c(=O)c3ccccc3n2C)c(=O)n1-c1ccc(F)cc1 |  | inactive: 0.866%
Cc1cccc(NC(=S)NNC(=O)c2ccco2)c1 |  | inactive: -3.3%
COC(=O)c1cc(S(=O)(=O)N2CCN(Cc3ccccc3)CC2)cn1C | inconclusive: 20 µM [inhibitor, single point] | 
C#CCOCCOCCOCCNc1nc(N2CCN(C(=O)[C@H](CCCCN)n3cc(C(N)CC(C)C)nn3)CC2)nc(N2CCN(C(=O)[C@H](CCC(=O)O)n3cc(C(N)[C@H](C)CC)nn3)CC2)n1 (stereo partly drawn) | inconclusive: 15.8 µM [inhibitor, single point] | 
CCC(=O)N(CC(=O)Nc1sc(C)c(C)c1C(N)=O)C1CCCCC1 | inconclusive: 63.1 µM [inhibitor, single point] | 
COc1ccc(OC)c2sc(NC(=O)CCSc3ccccc3)nc12 |  | inactive: -9.05%
O=c1c2cnn(-c3ccccc3)c2nnn1/N=C/c1cccnc1 | inconclusive: 35.5 µM [inhibitor, partial curve, poor fit] | 
COC(=O)C(COC(=O)c1c(F)cccc1F)NC(=O)c1c(F)cccc1F (stereo not drawn) | inconclusive: 100 µM [inhibitor, single point] | 
CC(C)(C)OC(=O)[C@H](Cc1ccccc1)NC(=O)c1nc[nH]c1C(=O)NC1CCN(C(=O)OC(C)(C)C)CC1 | inconclusive: 141 µM [inhibitor, partial curve, poor fit] | 
CCn1nc(C)c(CN2CCC(C(=O)Nc3cccc(-c4cccc(F)c4)c3)CC2)c1C |  | inactive: -4.83%
O=C(CCCC(=O)N/N=C/c1ccccc1C(=O)O)N/N=C/c1ccccc1C(=O)O | inconclusive: 89.1 µM [inhibitor, single point] | 
CCOC(=O)c1cc2c(=O)n3ccccc3nc2n(CCOC)c1=NC(=O)c1ccncc1 |  | inactive: 2.32%
COc1ccc(N=Cc2c(O)n(-c3cccc(C)n3)c(=O)c3ccccc23)c(OC)c1 | inconclusive: 398 µM [inhibitor, single point] | 

Three entries from above, arranged by molar mass, descending:
SMILES | Potency | activity, negative = inhibition
O=C(OCc1nnc(-c2ccccc2)o1)c1cc2ccccc2cc1O | inconclusive: 126 µM [inhibitor, single point] | 
O=c1c2cnn(-c3ccccc3)c2nnn1/N=C/c1cccnc1 | inconclusive: 35.5 µM [inhibitor, partial curve, poor fit] | 
Nc1ccc(OC(=O)Nc2ccc(O)cc2)cc1 | inconclusive: 100 µM [inhibitor, single point] | 
